The test in a line: qHTS Assay for Lipid Storage Modulators in Drosophila S3 Cells.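 On cell number change: cells counted by Cell Tracker Red CMTPX staining in the red channel.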 Particulars: BODIPY lipid droplet fluorescence, 18-24 h; for cell number change: measured here: cell count max response, cells fed with added oleic acid. A digest of the protocol:
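Drosophila S3 cells loaded with oleic acid (400 uM, as added) and compounds at several concentrations; lipid droplets imaged by 488-nm laser-scanning cytometry, 500–530 nm intensity and object ratio to cell channel. Percent activity normalized to 20 uM Triacsin C.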
A general note: qHTS replaces the single test concentration by a dilution series.

The mark [1] stands for this setting: measured here: lipid fluorescence (Fed channel) AC50, cells fed with added oleic acid.
[2] abbreviates: measured here: cell number channel AC50, cells fed with added oleic acid.

Some of the results follow. Further columns of the screen follow, without active or inactive calls. The list favours compounds with an active or inconclusive main result. The note in brackets gives the kind of curve behind each potency; many fits are weak.

The AC50 is the concentration giving half of the maximal activity seen. For the compound `Cc1cccc(N2C(=O)C(O)=C(C(=O)c3cccs3)C2c2ccc(Cl)cc2)n1` (stereo not drawn), the cell number change came out at 8.77%. The AC50 under setting [1] is 29.1 µM [rising, single point].
As to `COc1ccc(CCNc2oc(COc3ccccc3)nc2C#N)cc1`, the cell number change came to 4.63%. Further, under setting [1], the AC50 is 0.92 µM [rising, partial curve, poor fit].
Regarding `Cc1ccc(C(=O)NCC(=O)OCC(=O)NCCc2ccccc2)s1`, the cell number change is -4.4%. Moreover, the AC50 under setting [1] is 29.1 µM [rising, single point].
As to `O=C(Nc1ccn(Cc2c(F)c(F)cc(F)c2F)n1)c1ccc(COc2ccccc2Cl)cc1`, the cell number change is -22.6%. Also, the AC50 under setting [1] is 29.1 µM [falling, single point].
Turning to `CCOc1ccc(CN(C)C(=O)c2cccnc2SC)cc1OC`, the cell number change is -4.88%.
`CCc1nc(SCC(=O)N2CCCC2)c2c(=O)n(C)c(=O)n(C)c2n1`: the cell number change is -33.1%. Also, under setting [2], the AC50 was 20.6 µM [falling, single point]. For the same compound, the AC50 under setting [1] is 5.17 µM [falling, partial curve].
Consider `CC(C)N1CCc2c(sc(NC(=O)CCS(=O)(=O)c3ccccc3)c2C#N)C1`, for which the cell number change was -35.6%. Moreover, the AC50 under setting [2] was 32.6 µM [falling, single point]. The concentration at half-maximal activity (AC50) under setting [1] is 29.1 µM [falling, single point].
On to `CC(=O)Nc1ccc(S(=O)(=O)N2CCN(c3ccc(C)c(Cl)c3)CC2)cc1`, for which the cell number change was -49.2%. Besides, the AC50 under setting [2] is 9.2 µM [falling, partial curve]. For the same compound, the AC50 under setting [1] was 8.2 µM [falling, partial curve].
In the case of `CCOC(=O)c1cnc2ccc(OCC)cc2c1NCc1cccnc1`, the cell number change is 48.9%. The AC50 under setting [2] is 1.64 µM [rising, partial curve]. Besides, the AC50 under setting [1] is 8.2 µM [rising, partial curve].
Regarding `CC(=O)N1CCc2cc(S(=O)(=O)CCC(=O)NCc3ccco3)ccc21`, the cell number change is 28%. Moreover, the AC50 under setting [1] was 4.11 µM [rising, full curve, poor fit].
For `CCOc1ccc(-c2noc(CCC(=O)NC3CCCC3)n2)cc1OC`, the cell number change is -21.9%. The AC50 under setting [1] is 6.51 µM [rising, single point].
Take `COC(=O)c1ccc(CSc2ccc3nnc(-c4ccccc4)n3n2)o1`: the AC50 under setting [2] is 6.51 µM [rising, single point].
As to `Cc1c(CN(C)C)c2c(n1Cc1ccccc1)C(=O)c1ccc(Br)cc1-2`, the cell number change is -44.1%. Under setting [2], the AC50 is 0.731 µM [rising, single point]. The AC50 under setting [1] was 0.206 µM [rising, full curve, poor fit].
Regarding `CCOc1ccc(Nc2ccnc3cc(Cl)ccc23)cc1`, the cell number change was -15.1%. In addition, the AC50 under setting [1] was 6.51 µM [rising, single point].
Regarding `Cc1cccc(C(=O)O)c1[N+](=O)[O-]`, the cell number change stood at 3.5%. Besides, the AC50 under setting [1] is 11.6 µM [rising, single point].
In the case of `COCCN1C(=O)C(O)=C(C(C)=O)C1c1ccc(OC)c(OC)c1` (stereo not drawn), the cell number change was -36.7%. For the same compound, the AC50 under setting [2] was 5.8 µM [falling, partial curve].
Turning to `CN(C)CCn1c(=S)[nH]c2ncccc2c1=O`, the cell number change is -22.8%. Under setting [1], the concentration at half-maximal activity (AC50) is 32.6 µM [falling, single point].
With `Nc1ncc(Br)cc1S(=O)(=O)Nc1cc(C(F)(F)F)cc(C(F)(F)F)c1`, the AC50 under setting [1] is 0.731 µM [falling, full curve].
With `CC1CCC2(CC1)NC(=O)N(CC(=O)Nc1ccccc1-c1ccccc1)C2=O` (stereo not drawn), the cell number change was -0.79%. The AC50 under setting [2] was 6.51 µM [rising, single point].
In the case of `C=C(C)C1Cc2cc3ccc(=O)oc3cc2O1` (stereo not drawn), the cell number change stood at 5.25%. The AC50 under setting [1] is 8.2 µM [rising, partial curve, poor fit].
Turning to `CN(CC(=O)Nc1nccs1)S(=O)(=O)c1ccc(F)cc1`, the cell number change was 91.1%. For the same compound, the concentration at half-maximal activity (AC50) under setting [2] is 16.4 µM [rising, single point]. Further, under setting [1], the AC50 was 18.4 µM [rising, partial curve].
In the case of `Cc1ccc(-n2c(N)c(C(=O)N3CCN(C)CC3)sc2=S)cc1`, the cell number change is -83.8%. Moreover, the AC50 under setting [2] is 29.1 µM [falling, single point].
Consider `CCC1=NN2C(=N)/C(=C\c3cccn3-c3ccc(Cl)cc3)C(=O)N=C2S1`, for which the cell number change was 0.301%. The AC50 under setting [1] is 1.64 µM [rising, partial curve, poor fit].
Turning to `CC(C)(CO)NCc1ccccc1OCC(=O)Nc1ccccc1`, the cell number change was determined as 10.2%. The AC50 under setting [1] was 0.517 µM [falling, full curve].
`Cc1nc2ccc(S(=O)(=O)NC(C(=O)Nc3nccs3)C(C)C)cc2s1` (stereo not drawn): the AC50 is, setting by setting: under setting [2], 2.31 µM [rising, partial curve]; under setting [1], 2.06 µM [rising, partial curve].
Take `O=C(CSc1nc2[nH]ncc2c(=O)n1-c1ccccc1)c1ccc2c(c1)OCCO2`: the AC50 under setting [1] is 0.731 µM [rising, single point].
Turning to `O=C(CC(c1ccccc1)c1ccccc1O)NCc1ccccc1` (stereo not drawn), the cell number change was -5.91%. In addition, the half-maximal activity concentration (AC50) under setting [1] is 0.291 µM [falling, partial curve].
As for `CCCS(=O)(=O)N1CCCC(C(=O)NCCN(CC)CC)C1` (stereo not drawn), the cell number change was found to be 12.7%. In addition, under setting [1], the AC50 is 29.1 µM [rising, partial curve, poor fit].
Take `CC1(c2ccccc2)NC(=O)N(CC(=O)Nc2ccccc2N2CCCCC2)C1=O` (stereo not drawn): the cell number change is -7.8%. Besides, under setting [1], the AC50 is 14.6 µM [falling, single point].
As for `COc1ccc(CNC(=O)C2CCC(CNc3c(N4CCC(C)CC4)c(=O)c3=O)CC2)cc1` (stereo not drawn), the AC50 under setting [2] was 0.00461 µM [falling, full curve, poor fit].
On to `O=C(COC(=O)c1c2c(nc3ccccc13)/C(=C\c1cccs1)CCC2)Nc1ccccc1`, for which the cell number change is -37.8%. Under setting [2], the AC50 was 3.66 µM [falling, full curve]. In addition, the concentration at half-maximal activity (AC50) under setting [1] was 2.59 µM [falling, full curve].
For the compound `CCOC(=O)COn1c(=O)c(C)[n+]([O-])c2ccccc21`, the cell number change amounted to 35.1%. Also, the AC50 under setting [2] was 29.1 µM [rising, single point]. Moreover, the AC50 under setting [1] was 0.082 µM [rising, full curve, poor fit].
On to `FC(F)(F)c1cccc(N2CCN(c3nnnn3-c3ccccc3)CC2)c1`, for which the half-maximal activity concentration (AC50) under setting [1] is 23.1 µM [rising, single point].
In the case of `COc1ccccc1NC(=O)C(=O)NCc1ccncc1`, the cell number change was 10.4%. The AC50 under setting [1] is 29.1 µM [rising, partial curve, poor fit].
Consider `Nc1ccc(-n2cc(-c3ccccc3)[nH]c2=S)cc1`, for which, under setting [1], the AC50 was 29.1 µM [rising, single point].
With `O=C(Nc1nc2ccccc2[nH]1)c1cccc(F)c1`, the cell number change was 3.91%. The half-maximal activity concentration (AC50) under setting [1] was 0.0731 µM [falling, full curve, poor fit].
